Laboratory results: the supplement of paper PMC10849652
The list shows a part of the results.

Chains of the proteins cited; added tags and fusions are not shown. Lines headed by an entry give the natural chain unless they say otherwise; changes in a name come on top.
UniProt Q9Y6D0, whole entry, looked up: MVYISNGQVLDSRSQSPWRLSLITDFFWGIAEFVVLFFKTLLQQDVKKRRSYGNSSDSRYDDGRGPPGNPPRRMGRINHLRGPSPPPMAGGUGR
UniProt Q9NR46: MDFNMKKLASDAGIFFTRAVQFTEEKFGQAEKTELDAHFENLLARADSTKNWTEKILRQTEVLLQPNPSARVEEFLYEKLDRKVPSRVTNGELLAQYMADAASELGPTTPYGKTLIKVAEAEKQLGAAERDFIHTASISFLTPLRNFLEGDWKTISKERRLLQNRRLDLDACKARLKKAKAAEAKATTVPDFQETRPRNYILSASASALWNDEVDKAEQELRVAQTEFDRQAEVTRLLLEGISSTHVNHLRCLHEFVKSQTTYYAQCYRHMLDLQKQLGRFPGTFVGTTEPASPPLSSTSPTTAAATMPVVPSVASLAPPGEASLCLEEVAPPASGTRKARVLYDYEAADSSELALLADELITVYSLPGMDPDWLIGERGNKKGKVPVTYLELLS
UniProt Q9H9B4: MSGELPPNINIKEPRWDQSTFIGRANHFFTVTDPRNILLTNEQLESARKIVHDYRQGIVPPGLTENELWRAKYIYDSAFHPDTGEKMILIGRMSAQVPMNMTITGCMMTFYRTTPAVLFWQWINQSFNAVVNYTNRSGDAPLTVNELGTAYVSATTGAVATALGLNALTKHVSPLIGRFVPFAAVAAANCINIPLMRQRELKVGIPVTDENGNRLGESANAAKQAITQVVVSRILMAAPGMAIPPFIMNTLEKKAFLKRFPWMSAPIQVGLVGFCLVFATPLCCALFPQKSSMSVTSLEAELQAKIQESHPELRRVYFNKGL
UniProt P50453: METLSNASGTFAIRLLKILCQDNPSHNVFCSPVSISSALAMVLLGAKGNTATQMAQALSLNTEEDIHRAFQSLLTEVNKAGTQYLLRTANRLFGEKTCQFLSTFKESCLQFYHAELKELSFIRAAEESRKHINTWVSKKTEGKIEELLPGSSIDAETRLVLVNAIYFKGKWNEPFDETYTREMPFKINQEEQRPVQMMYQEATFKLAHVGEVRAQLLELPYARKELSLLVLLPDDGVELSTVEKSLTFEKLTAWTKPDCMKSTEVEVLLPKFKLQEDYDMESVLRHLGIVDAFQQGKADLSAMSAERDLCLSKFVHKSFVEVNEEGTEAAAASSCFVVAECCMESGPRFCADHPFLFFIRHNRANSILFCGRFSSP
UniProt Q8TD22: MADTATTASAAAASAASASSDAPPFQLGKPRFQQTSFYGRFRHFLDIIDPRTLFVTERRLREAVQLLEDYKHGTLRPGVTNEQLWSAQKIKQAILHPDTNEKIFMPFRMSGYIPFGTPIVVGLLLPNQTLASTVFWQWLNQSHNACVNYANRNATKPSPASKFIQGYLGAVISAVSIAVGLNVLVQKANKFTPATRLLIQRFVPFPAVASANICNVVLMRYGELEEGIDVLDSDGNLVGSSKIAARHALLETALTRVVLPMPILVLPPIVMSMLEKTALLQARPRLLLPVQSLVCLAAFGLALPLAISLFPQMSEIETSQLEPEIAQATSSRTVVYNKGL
UniProt Q9Y3B4: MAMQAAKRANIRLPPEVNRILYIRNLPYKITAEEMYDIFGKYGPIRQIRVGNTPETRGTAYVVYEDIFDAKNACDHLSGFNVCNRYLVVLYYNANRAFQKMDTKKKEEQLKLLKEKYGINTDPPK
UniProt O60613, whole entry, looked up: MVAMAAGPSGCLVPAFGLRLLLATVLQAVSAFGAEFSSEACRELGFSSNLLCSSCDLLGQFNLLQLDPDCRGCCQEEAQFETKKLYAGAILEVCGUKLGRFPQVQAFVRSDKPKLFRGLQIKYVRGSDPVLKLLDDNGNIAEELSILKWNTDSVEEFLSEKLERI
UniProt Q9NXA8: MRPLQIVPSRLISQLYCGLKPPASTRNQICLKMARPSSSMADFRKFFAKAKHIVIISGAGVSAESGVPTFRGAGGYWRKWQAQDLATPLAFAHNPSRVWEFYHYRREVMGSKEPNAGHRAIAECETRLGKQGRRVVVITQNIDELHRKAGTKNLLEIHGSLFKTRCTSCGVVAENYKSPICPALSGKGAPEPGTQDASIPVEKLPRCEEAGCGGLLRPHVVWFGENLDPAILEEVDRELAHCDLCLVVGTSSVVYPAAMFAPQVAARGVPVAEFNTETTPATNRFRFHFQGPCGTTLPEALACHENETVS
UniProt P58004: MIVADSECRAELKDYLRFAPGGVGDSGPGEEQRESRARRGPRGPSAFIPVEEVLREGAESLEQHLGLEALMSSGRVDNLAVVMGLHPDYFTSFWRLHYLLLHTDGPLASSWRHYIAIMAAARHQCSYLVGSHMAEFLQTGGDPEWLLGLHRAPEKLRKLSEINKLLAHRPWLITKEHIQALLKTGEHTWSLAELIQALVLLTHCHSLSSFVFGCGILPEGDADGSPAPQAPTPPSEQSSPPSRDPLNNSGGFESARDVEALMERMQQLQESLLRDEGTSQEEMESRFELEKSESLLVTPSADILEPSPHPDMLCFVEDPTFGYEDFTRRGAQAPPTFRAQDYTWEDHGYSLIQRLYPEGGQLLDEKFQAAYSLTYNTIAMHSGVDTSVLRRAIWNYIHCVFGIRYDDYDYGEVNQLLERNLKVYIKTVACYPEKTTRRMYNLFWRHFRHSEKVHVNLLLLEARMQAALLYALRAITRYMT
UniProt Q9Y3L3: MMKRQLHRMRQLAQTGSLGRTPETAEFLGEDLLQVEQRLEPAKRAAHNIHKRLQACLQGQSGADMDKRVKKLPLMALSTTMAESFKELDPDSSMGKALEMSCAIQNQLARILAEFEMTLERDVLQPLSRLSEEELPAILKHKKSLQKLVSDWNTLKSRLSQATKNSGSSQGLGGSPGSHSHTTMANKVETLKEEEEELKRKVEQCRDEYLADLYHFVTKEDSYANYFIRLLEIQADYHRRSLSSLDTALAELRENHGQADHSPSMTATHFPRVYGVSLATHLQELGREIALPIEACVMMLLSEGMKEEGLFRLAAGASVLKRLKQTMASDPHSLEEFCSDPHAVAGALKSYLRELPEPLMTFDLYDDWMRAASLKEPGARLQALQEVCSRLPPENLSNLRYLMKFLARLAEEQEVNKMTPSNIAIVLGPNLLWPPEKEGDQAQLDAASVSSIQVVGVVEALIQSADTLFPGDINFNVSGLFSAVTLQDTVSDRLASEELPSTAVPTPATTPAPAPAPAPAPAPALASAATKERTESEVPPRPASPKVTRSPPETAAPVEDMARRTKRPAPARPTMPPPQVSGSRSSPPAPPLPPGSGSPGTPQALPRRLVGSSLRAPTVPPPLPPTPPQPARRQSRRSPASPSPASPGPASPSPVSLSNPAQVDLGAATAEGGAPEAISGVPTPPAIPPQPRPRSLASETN
UniProt Q8N6T7, whole entry, looked up: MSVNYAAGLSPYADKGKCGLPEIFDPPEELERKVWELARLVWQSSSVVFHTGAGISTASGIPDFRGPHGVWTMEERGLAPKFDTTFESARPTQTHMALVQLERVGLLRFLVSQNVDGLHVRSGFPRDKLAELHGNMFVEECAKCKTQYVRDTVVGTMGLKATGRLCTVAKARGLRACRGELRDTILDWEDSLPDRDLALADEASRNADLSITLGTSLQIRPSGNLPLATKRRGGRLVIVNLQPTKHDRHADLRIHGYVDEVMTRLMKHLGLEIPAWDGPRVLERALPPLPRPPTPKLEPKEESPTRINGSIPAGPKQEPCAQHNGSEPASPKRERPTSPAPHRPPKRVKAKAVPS
UniProt Q9UQ13: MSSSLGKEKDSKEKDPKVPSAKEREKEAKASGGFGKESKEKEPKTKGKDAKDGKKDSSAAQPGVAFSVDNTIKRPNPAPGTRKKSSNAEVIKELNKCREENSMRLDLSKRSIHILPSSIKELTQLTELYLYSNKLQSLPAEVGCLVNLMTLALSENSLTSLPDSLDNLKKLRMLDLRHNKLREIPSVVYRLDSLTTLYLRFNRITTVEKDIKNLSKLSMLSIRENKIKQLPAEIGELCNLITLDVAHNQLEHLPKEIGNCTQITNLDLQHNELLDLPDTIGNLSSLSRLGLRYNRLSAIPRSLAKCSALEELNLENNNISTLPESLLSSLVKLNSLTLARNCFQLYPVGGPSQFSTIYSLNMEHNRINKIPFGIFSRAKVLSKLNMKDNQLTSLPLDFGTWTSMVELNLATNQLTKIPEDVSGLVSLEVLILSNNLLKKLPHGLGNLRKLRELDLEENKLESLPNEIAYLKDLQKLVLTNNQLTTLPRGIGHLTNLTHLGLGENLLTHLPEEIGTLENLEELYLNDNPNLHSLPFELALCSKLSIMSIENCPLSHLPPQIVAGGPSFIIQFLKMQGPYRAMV
UniProt Q9UGK8: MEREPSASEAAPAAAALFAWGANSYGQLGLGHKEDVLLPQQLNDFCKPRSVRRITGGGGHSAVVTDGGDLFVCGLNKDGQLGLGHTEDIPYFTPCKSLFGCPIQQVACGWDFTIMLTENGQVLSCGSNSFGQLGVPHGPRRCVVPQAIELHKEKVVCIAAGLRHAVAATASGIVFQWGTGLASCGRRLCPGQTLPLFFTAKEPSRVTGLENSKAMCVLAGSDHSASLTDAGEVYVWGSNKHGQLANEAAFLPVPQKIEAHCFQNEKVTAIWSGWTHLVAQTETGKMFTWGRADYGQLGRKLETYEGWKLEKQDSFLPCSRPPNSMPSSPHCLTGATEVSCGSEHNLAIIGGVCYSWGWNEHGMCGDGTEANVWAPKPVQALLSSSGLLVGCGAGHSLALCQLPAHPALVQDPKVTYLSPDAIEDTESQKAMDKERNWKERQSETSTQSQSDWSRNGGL
UniProt P23246: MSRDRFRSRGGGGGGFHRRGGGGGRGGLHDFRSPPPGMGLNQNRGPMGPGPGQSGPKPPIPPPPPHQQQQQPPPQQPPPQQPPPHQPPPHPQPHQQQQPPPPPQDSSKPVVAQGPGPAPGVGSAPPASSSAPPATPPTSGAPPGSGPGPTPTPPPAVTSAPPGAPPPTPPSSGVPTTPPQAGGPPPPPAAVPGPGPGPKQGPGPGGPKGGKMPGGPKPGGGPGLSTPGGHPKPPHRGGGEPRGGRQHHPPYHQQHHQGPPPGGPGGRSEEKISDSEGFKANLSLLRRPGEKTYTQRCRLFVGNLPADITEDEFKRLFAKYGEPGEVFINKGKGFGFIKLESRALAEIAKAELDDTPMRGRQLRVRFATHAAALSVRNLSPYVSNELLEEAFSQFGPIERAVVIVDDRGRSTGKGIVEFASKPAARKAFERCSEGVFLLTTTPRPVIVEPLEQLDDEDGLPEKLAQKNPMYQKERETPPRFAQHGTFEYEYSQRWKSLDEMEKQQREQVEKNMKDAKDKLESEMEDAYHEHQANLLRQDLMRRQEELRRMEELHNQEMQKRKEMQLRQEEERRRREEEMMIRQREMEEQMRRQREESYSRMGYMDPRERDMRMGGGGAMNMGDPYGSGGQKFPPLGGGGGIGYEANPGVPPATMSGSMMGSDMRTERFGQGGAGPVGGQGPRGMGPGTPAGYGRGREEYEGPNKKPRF
UniProt P61619, whole entry, looked up: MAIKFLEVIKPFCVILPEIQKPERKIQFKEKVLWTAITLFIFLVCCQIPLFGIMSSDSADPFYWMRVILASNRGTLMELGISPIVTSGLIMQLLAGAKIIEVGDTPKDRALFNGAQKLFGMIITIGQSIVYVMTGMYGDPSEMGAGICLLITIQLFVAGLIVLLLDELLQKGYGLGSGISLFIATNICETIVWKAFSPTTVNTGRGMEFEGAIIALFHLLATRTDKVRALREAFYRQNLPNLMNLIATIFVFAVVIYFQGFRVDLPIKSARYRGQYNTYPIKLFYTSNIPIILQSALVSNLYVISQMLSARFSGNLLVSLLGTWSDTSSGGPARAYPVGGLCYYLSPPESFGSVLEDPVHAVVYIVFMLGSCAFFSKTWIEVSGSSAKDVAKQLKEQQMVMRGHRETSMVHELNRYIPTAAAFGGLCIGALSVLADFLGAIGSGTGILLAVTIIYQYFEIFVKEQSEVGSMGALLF
UniProt Q12874: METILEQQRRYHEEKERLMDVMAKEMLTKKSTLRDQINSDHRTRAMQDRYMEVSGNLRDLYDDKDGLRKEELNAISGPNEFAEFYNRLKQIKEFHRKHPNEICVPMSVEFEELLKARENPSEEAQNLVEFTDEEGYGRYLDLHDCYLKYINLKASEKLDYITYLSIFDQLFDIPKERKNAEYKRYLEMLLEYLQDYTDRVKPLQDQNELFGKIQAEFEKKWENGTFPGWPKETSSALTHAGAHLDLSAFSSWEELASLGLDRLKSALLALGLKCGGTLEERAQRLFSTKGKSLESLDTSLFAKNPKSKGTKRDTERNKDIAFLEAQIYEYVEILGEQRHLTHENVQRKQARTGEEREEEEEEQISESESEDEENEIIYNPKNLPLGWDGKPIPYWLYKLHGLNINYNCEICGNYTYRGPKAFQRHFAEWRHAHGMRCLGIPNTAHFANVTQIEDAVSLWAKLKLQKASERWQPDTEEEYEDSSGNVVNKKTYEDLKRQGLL

Key:
Assay in all cases: log2 fold change, soluble protein after heating vs DMSO (PISA); higher = thermal stabilisation; K562 cells, 10 uM, 30 min; active = over 0.2 and 3.5 SD of the protein, either way, in both replicates (recomputed)
[1] = compound: NC(=O)Nc1cc(-c2cccc(F)c2)sc1C(=O)N[C@H]1CCCNC1
In short: (§1)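 For each measurement, 10 μM compound was applied for 30 min to K562 cells at 2×10^6 cells/mL. Aliquots were heated for 3 min across 48°C-58°C, pooled, and extracted in PBS with 0.5% NP-40 at 4°C; the supernatant after 21,000xg for 90 min was soluble protein. This was quantified by TMTpro 16plex LC-MS/MS with channel sums equalised, and thermal stability was reported relative to control samples from duplicates, on a log2 fold-change scale.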

[2] = compound: NC(=O)c1cnc(N[C@@H]2CCCC[C@@H]2N)nc1Nc1cccc(-n2nccn2)c1
In short: as §1

[3] = compound: NC1(c2ccc(-c3nc4ccn5c(=O)[nH]nc5c4cc3-c3ccccc3)cc2)CCC1
In short: as §1

[4] = compound: NCC(=O)Nc1ccc(-n2nc(C(F)(F)F)cc2-c2ccc3c(ccc4ccccc43)c2)cc1
In short: as §1

[5] = compound: Nc1ccccc1NC(=O)c1ccc(CNC(=O)OCc2cccnc2)cc1 [entinostat]
In short: as §1

[6] = compound: O=C(CCCCCCC(=O)Nc1ccccc1)NO [vorinostat]
In short: as §1

[7] = compound: O=C(CCCCCCNC(=O)c1cnc(N(c2ccccc2)c2ccccc2Cl)nc1)NO [citarinostat]
In short: as §1

[8] = compound: O=C(O)c1ccc2c(c1)nc(Nc1cccc(Cl)c1)c1ccncc12 [silmitasertib]
In short: as §1

[9] = compound: O=C1NC(=O)C(c2cnc3ccccn23)=C1c1cn2c3c(cc(F)cc13)CN(C(=O)N1CCCCC1)CC2
In short: as §1

[10] = compound: c1cc(OCCN2CCCCC2)cc(-c2n[nH]c3ccc(-c4nnc[nH]4)cc23)c1
In short: as §1

Measured: log2 fold change

SHROOM2 (UniProt Q13796)
inactive: [1] 0.024 | [2] -0.09 | [3] 0.275 | [4] 0.006 | [5] -0.037 | [6] 0.068 | [7] 0.057 | [8] -0.141 | [9] -0.088 | [10] 0.057

SHKBP1 (UniProt Q8TBC3)
inactive: [1] -0.062 | [2] -0.047 | [3] -0.014 | [4] 0.017 | [5] 0.027 | [6] -0.076 | [7] -0.102 | [8] -0.024 | [9] -0.077 | [10] -0.123

SEMA4C (UniProt Q9C0C4)
inactive: [1] -0.016 | [2] 0.048 | [3] -0.129 | [4] 0.011 | [5] -0.044 | [6] -0.023 | [7] 0.065 | [8] -0.009 | [9] -0.046 | [10] -0.03

SELENOK (UniProt Q9Y6D0)
inactive: [1] -0.053 | [2] 0 | [3] 0.111 | [4] 0.02 | [5] -0.072 | [6] 0.274 | [7] 0.265 | [8] 0.235 | [9] 0.219 | [10] -0.207

SH3GLB2 (UniProt Q9NR46)
inactive: [1] -0.105 | [2] -0.13 | [3] -0.163 | [4] 0.004 | [5] 0.069 | [6] 0.081 | [7] 0.059 | [8] 0.015 | [9] -0.028 | [10] -0.13

SFXN1 (UniProt Q9H9B4)
inactive: [1] 0.053 | [2] -0.033 | [3] -0.013 | [4] -0.016 | [5] 0.077 | [6] 0.036 | [7] 0.067 | [8] -0.027 | [9] -0.025 | [10] 0.014

SERPINB9 (UniProt P50453)
inactive: [1] 0.031 | [2] 0.003 | [3] -0.019 | [4] 0.022 | [5] -0.015 | [6] -0.014 | [7] 0.022 | [8] -0.046 | [9] -0.004 | [10] 0.003

SFXN5 (UniProt Q8TD22)
inactive: [1] -0.043 | [2] 0.042 | [3] -0.072 | [4] -0.095 | [5] -0.068 | [6] 0.019 | [7] -0.028 | [8] -0.003 | [9] 0.012 | [10] 0.072

SF3B6 (UniProt Q9Y3B4)
inactive: [1] 0.05 | [2] -0.042 | [3] 0.022 | [4] 0.002 | [5] -0.019 | [6] 0.037 | [7] 0.023 | [8] -0.055 | [9] -0.176 | [10] -0.079

SELENOF (UniProt O60613)
inactive: [1] -0.041 | [2] -0.063 | [3] -0.023 | [4] 0.026 | [5] -0.034 | [6] -0.066 | [7] 0.025 | [8] 0.021 | [9] -0.04 | [10] -0.035

SEPTIN11 isoform 2 (UniProt Q9NVA2)
inactive: [1] -0.008 | [2] -0.036 | [3] 0.02 | [4] 0 | [5] -0.023 | [6] -0.051 | [7] -0.009 | [8] 0.011 | [9] -0.044 | [10] -0.046

SIRT5 (UniProt Q9NXA8)
inactive: [1] -0.002 | [2] 0.006 | [3] -0.087 | [4] -0.129 | [5] 0.002 | [6] -0.054 | [7] -0.067 | [8] 0.057 | [9] -0.052 | [10] -0.074

SEL1L3 (UniProt Q68CR1)
inactive: [1] -0.025 | [2] 0.009 | [3] -0.094 | [4] 0.002 | [5] -0.015 | [6] 0.043 | [7] 0.04 | [8] 0.053 | [9] -0.01 | [10] -0.1

SESN2 (UniProt P58004)
inactive: [1] -0.069 | [2] -0.159 | [3] -0.129 | [4] -0.093 | [5] 0.075 | [6] 0.079 | [7] -0.081 | [8] 0.108 | [9] -0.123 | [10] 0.026

SHTN1 isoform 3 (UniProt A0MZ66)
inactive: [1] -0.073 | [2] -0.12 | [3] -0.005 | [4] -0.083 | [5] 0.004 | [6] 0.027 | [7] -0.043 | [8] 0.138 | [9] 0.021 | [10] -0.136

SERPINA7 (UniProt P05543)
inactive: [1] -0.062 | [2] 0.132 | [3] 0.234 | [4] -0.075 | [5] -0.084 | [6] -0.164 | [7] -0.011 | [8] 0.091 | [9] 0.089 | [10] 0.367

SH3BP1 (UniProt Q9Y3L3)
inactive: [1] 0.006 | [2] -0.033 | [3] -0.088 | [4] 0.031 | [5] -0.034 | [6] -0.003 | [7] 0.034 | [8] 0.025 | [9] 0.01 | [10] -0.002

SH3GLB1 isoform 2 (UniProt Q9Y371)
inactive: [1] -0.078 | [2] -0.137 | [3] -0.238 | [4] -0.042 | [5] 0.123 | [6] 0.147 | [7] 0.121 | [8] 0.001 | [9] -0.017 | [10] -0.116

SIRT6 (UniProt Q8N6T7)
inactive: [1] -0.147 | [2] 0.094 | [3] -0.068 | [4] -0.08 | [5] 0.14 | [6] 0.04 | [7] 0.047 | [8] 0.034 | [9] -0.143 | [10] 0.004

SERPINB6, A0A087X1N8
inactive: [1] 0.019 | [2] 0.001 | [3] -0.012 | [4] 0.043 | [5] -0.02 | [6] -0.004 | [7] 0.021 | [8] 0.005 | [9] -0.016 | [10] -0.012

SHOC2 (UniProt Q9UQ13)
inactive: [1] -0.009 | [2] 0.009 | [3] -0.132 | [4] -0.031 | [5] 0.013 | [6] 0.045 | [7] -0.13 | [8] 0.038 | [9] -0.054 | [10] 0.251

SEC63 (UniProt Q9UGP8)
inactive: [1] -0.01 | [2] -0.002 | [3] 0.005 | [4] -0.029 | [5] 0.025 | [6] -0.008 | [7] 0.041 | [8] -0.02 | [9] -0.009 | [10] -0.024

SIL1 (UniProt Q9H173)
inactive: [1] 0.021 | [2] 0.007 | [3] -0.02 | [4] 0.007 | [5] -0.006 | [6] -0.022 | [7] 0.024 | [8] 0.089 | [9] -0.042 | [10] -0.053

SHMT1 (UniProt P34896)
inactive: [1] 0.067 | [2] 0.045 | [3] -0.008 | [4] 0.033 | [5] 0.001 | [6] -0.044 | [7] 0.027 | [8] 0.002 | [9] 0.024 | [10] -0.013

SLAIN2 (UniProt Q9P270)
inactive: [1] 0.127 | [2] -0.018 | [3] 0.05 | [4] 0.018 | [5] -0.03 | [6] 0.032 | [7] 0.019 | [8] 0.016 | [9] 0 | [10] -0.066

SERGEF (UniProt Q9UGK8)
inactive: [1] -0.044 | [2] -0.03 | [3] -0.091 | [4] 0.061 | [5] 0.026 | [6] 0.114 | [7] 0.099 | [8] -0.07 | [9] 0.024 | [10] -0.072

SFPQ (UniProt P23246)
inactive: [1] 0.01 | [2] 0.016 | [3] 0.152 | [4] -0.018 | [5] 0.002 | [6] 0.013 | [7] 0.011 | [8] 0.112 | [9] 0.037 | [10] -0.12

SIGMAR1 (UniProt Q99720)
inactive: [1] 0.081 | [2] 0.082 | [3] -0.002 | [4] -0.064 | [5] 0.043 | [6] 0.052 | [7] 0.044 | [8] -0.029 | [9] 0.018 | [10] -0.035

SEC61A1 (UniProt P61619)
inactive: [1] -0.04 | [2] -0.017 | [3] -0.041 | [4] -0.049 | [5] -0.012 | [6] -0.026 | [7] 0.019 | [8] 0.035 | [9] -0.028 | [10] -0.077

SF3A3 (UniProt Q12874)
inactive: [1] 0.044 | [2] -0.05 | [3] 0.029 | [4] -0.077 | [5] 0.064 | [6] 0.038 | [7] 0.05 | [8] 0.09 | [9] 0.008 | [10] -0.087

2 entries drawn at random from those above:
SLAIN2 (UniProt Q9P270)
inactive: [1] 0.127 | [2] -0.018 | [3] 0.05 | [4] 0.018 | [5] -0.03 | [6] 0.032 | [7] 0.019 | [8] 0.016 | [9] 0 | [10] -0.066

SEC63 (UniProt Q9UGP8)
inactive: [1] -0.01 | [2] -0.002 | [3] 0.005 | [4] -0.029 | [5] 0.025 | [6] -0.008 | [7] 0.041 | [8] -0.02 | [9] -0.009 | [10] -0.024
